Values from PubChem BioAssay AID652259 (Drosophila RNAi Screening Center, 2013).
Assay: 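Identify new Wingless signalling regulators in fly cells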 (primary screen). Cell system: Drosophila clone 8 imaginal disc epithelial cells. Knock-down reagent: long dsRNA against Drosophila genes. Challenge: pathway stimulated by co-transfected Wingless expression plasmid. Measured: 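Dual luciferase reads per well after Wingless plasmid stimulation: reporter firefly light and Renilla control light; activity is firefly divided by Renilla, a ratio not deposited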. Scale: firefly reporter light: higher = more Wg reporter light, before normalisation; Renilla control light: higher = more transfected or surviving cells. Hit rule: 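Strong candidates differ from their plate mean by at least two out of four per-plate statistical tests; weak candidates meet just one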. Meaning of the calls: active = candidate regulator (raises or lowers reporter); inactive = not a candidate.
In all, the deposit lists about 22,000 reagents; below is an unselected part of those with a known target gene and a result. Of all reagents, 233 (1.1%) are marked active. 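Light values are raw, unnormalised plate reads; the ratio scores behind the reporter calls were not deposited.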 The numbers tell different reagents against one gene apart. A plus sign joins genes that one reagent is predicted to hit. Not stated in the record: the amount of reagent, the time to read-out, the dose of the treatment.

Against CG14125, the values are firefly reporter light, replicate 1 = 11431; Renilla control light, replicate 1 = 2985; inactive.
Silencing of Smyd5 (SET and MYND domain containing, class 5) came out at: firefly reporter light, replicate 1 = 19027; Renilla control light, replicate 1 = 4144; inactive.
For p53, the values are firefly reporter light, replicate 1 = 3788; firefly reporter light, replicate 2 = 6439; Renilla control light, replicate 1 = 1484; Renilla control light, replicate 2 = 1780; inactive.
Against vir (virilizer), the values are firefly reporter light, replicate 1 = 2563; firefly reporter light, replicate 2 = 5178; Renilla control light, replicate 1 = 608; Renilla control light, replicate 2 = 1804; inactive.
Depletion of CG8908 came out at: firefly reporter light, replicate 1 = 6134; Renilla control light, replicate 1 = 2295; inactive.
Sap30 (SIN3-associated polypeptide 30) scored firefly reporter light, replicate 1 = 11558; Renilla control light, replicate 1 = 7901; inactive.
Knock-down of RalGPS (Ral GEF with PH domain and SH3 binding motif) resulted in: firefly reporter light, replicate 1 = 12246; Renilla control light, replicate 1 = 3473; inactive.
For CG42306 + Gint3, the entry reads firefly reporter light, replicate 1 = 13555; Renilla control light, replicate 1 = 5085; inactive.
Against Alk (Anaplastic lymphoma kinase), the entry reads firefly reporter light, replicate 1 = 8934; firefly reporter light, replicate 2 = 7.72e5; Renilla control light, replicate 1 = 2906; Renilla control light, replicate 2 = 3.99e5; inactive.
Against Ptpmeg (Protein tyrosine phosphatase Meg), the entry reads firefly reporter light, replicate 1 = 12139; Renilla control light, replicate 1 = 3107; inactive.
Knock-down of dib (disembodied) came out at: firefly reporter light, replicate 1 = 5697; Renilla control light, replicate 1 = 2743; inactive.
Cpr47Ec (Cuticular protein 47Ec) scored firefly reporter light, replicate 1 = 8908; Renilla control light, replicate 1 = 2993; inactive.
Against Ptp69D (Protein tyrosine phosphatase 69D), the values are firefly reporter light, replicate 1 = 5360; Renilla control light, replicate 1 = 2951; inactive.
For grau (grauzone), the values are firefly reporter light, replicate 1 = 2679; firefly reporter light, replicate 2 = 5941; Renilla control light, replicate 1 = 560; Renilla control light, replicate 2 = 2135; inactive.
For CG33777, the values are firefly reporter light, replicate 1 = 4186; Renilla control light, replicate 1 = 1914; inactive.
After knock-down of CG1265 the results were firefly reporter light, replicate 1 = 9274; Renilla control light, replicate 1 = 3639; inactive.
With knock-down of NAAT1 (Nutrient Amino Acid Transporter 1), the record shows firefly reporter light, replicate 1 = 16885; Renilla control light, replicate 1 = 10608; inactive.
mthl10 (methuselah-like 10) #1 showed firefly reporter light, replicate 1 = 7600; Renilla control light, replicate 1 = 2521; inactive.
mthl10 (methuselah-like 10) #2 gave firefly reporter light, replicate 1 = 10025; Renilla control light, replicate 1 = 4230; inactive.
Depletion of CG10038 resulted in: firefly reporter light, replicate 1 = 6533; Renilla control light, replicate 1 = 2844; inactive.
Silencing of Cdk9 (Cyclin-dependent kinase 9) resulted in: firefly reporter light, replicate 1 = 2505; firefly reporter light, replicate 2 = 5333; Renilla control light, replicate 1 = 545; Renilla control light, replicate 2 = 2050; inactive.
Silencing of DIP2 (DISCO Interacting Protein 2) gave: firefly reporter light, replicate 1 = 13418; Renilla control light, replicate 1 = 4314; inactive.
Against CG8507 the deposit lists firefly reporter light, replicate 1 = 12528; Renilla control light, replicate 1 = 3360; inactive.
With knock-down of nan (nanchung), the record shows firefly reporter light, replicate 1 = 4503; Renilla control light, replicate 1 = 2428; inactive.
For CG42824, the values are firefly reporter light, replicate 1 = 4632; Renilla control light, replicate 1 = 1763; inactive.
After knock-down of CG10338, the record shows firefly reporter light, replicate 1 = 2966; firefly reporter light, replicate 2 = 4684; Renilla control light, replicate 1 = 361; Renilla control light, replicate 2 = 2592; inactive.
Against CG4168 #1 the deposit lists firefly reporter light, replicate 1 = 29132; Renilla control light, replicate 1 = 11739; inactive.
Knock-down of CG4168 #2 gave: firefly reporter light, replicate 1 = 14497; Renilla control light, replicate 1 = 7129; inactive.
With knock-down of CG4168 #3 the results were firefly reporter light, replicate 1 = 6936; Renilla control light, replicate 1 = 1952; inactive.
CG4168 #4 gave firefly reporter light, replicate 1 = 4.18e5; firefly reporter light, replicate 2 = 5.60e5; Renilla control light, replicate 1 = 2.22e5; Renilla control light, replicate 2 = 2.06e5; inactive.
CG4168 #5 showed firefly reporter light, replicate 1 = 6.98e5; firefly reporter light, replicate 2 = 7.59e5; Renilla control light, replicate 1 = 2.41e5; Renilla control light, replicate 2 = 1.77e5; inactive.
For CG13151 the deposit lists firefly reporter light, replicate 1 = 5703; Renilla control light, replicate 1 = 2320; inactive.

As entered above:
For “firefly reporter light, replicate 1”, CG10038 reads 6533
Value for grau (grauzone) under “Renilla control light, replicate 2”: 2135
Cdk9 (Cyclin-dependent kinase 9), outcome: inactive
